# Results as given in patent US4639434A, “Novel cyclosporins” (Sandoz Ltd., priority 1984, dated 1987).
# Not every detail of the peptide structures is certain; ends, links or a residue may be inferred. Square brackets hold non-standard residues; d marks the D form. Peptide text beside a SMILES is read from it. MeBmt = C/C=C/C[C@@H](C)[C@@H](O)[C@H](NC)C(=O)O; NMeL = CN[C@@H](CC(C)C)C(=O)O; NMeV = CN[C@H](C(=O)O)C(C)C; Nva = CCC[C@H](N)C(=O)O; Sar = CNCC(=O)O
# What was measured:
# haemolysis zones = assay: Test 1.1 Local haemolysis in vitro in gel; type: cell-based; conditions: concentration giving 50% inhibition compared with untreated controls
# [1] = test system: kidney transplant rejection, F 344 donor to Wistar-Furth recipient rats; assay: Test 1.4 Suppression of organ-rejection (kidney transplant); type: in vivo; conditions: rat kidney transplant
SMILES,TEST 1.1 IC50 (haemolysis zones) [µg/mL],TEST 1.4 SURVIVAL RATE IN DAYS (100% Survival) ([1]; dosage 5.0 mg/kg p.o. for 14 days) [days],TEST 1.4 SURVIVAL RATE IN DAYS (100% Survival) ([1]; dosage 7.5 mg/kg p.o. for 14 days) [days],TEST 1.4 SURVIVAL RATE IN DAYS (100% Survival) ([1]; dosage 10.0 mg/kg p.o. for 14 days) [days]
"C/C=C/C[C@@H](C)[C@@H](O)[C@H]1C(=O)N[C@@H](CC)C(=O)N(C)CC(=O)N(C)[C@@H](CC(C)C)C(=O)N[C@@H](C(C)C)C(=O)N(C)[C@@H](CC(C)C)C(=O)N[C@@H](C)C(=O)N[C@H]([C@H](C)O)C(=O)N(C)[C@@H](CC(C)C)C(=O)N(C)[C@@H](CC(C)C)C(=O)N(C)[C@@H](C(C)C)C(=O)N1C [A, [(D)Thr]^8 -Cyclosporine]",0.033,,,
"C/C=C/C[C@@H](C)[C@@H](O)[C@H]1C(=O)N[C@@H](CCC)C(=O)N(C)CC(=O)N(C)[C@@H](CC(C)C)C(=O)N[C@@H](C(C)C)C(=O)N(C)[C@@H](CC(C)C)C(=O)N[C@@H](C)C(=O)N[C@H](CO)C(=O)N(C)[C@@H](CC(C)C)C(=O)N(C)[C@@H](CC(C)C)C(=O)N(C)[C@@H](C(C)C)C(=O)N1C [B, [Nva]^2-[(D)Ser]^8 -Cyclosporine] (cyclo(A[dS][NMeL][NMeL][NMeV][MeBmt][Nva][Sar][NMeL]V[NMeL]))",0.031,,,
"C/C=C/C[C@@H](C)[C@@H](O)[C@H]1C(=O)N[C@@H](CCC)C(=O)N(C)CC(=O)N(C)[C@@H](CC(C)C)C(=O)N[C@@H](CCC)C(=O)N(C)[C@@H](CC(C)C)C(=O)N[C@@H](C)C(=O)N[C@H](CO)C(=O)N(C)[C@@H](CC(C)C)C(=O)N(C)[C@@H](CC(C)C)C(=O)N(C)[C@@H](C(C)C)C(=O)N1C [C, [Nva]^2-[Nva]^5-[(D)Ser]^8 -Cyclosporine] (cyclo(A[dS][NMeL][NMeL][NMeV][MeBmt][Nva][Sar][NMeL][Nva][NMeL]))",0.023,,,
"C/C=C/C[C@@H](C)[C@@H](O)[C@H]1C(=O)N[C@@H](CC)C(=O)N(C)CC(=O)N(C)[C@@H](CC(C)C)C(=O)N[C@@H](C(C)C)C(=O)N(C)[C@@H](CC(C)C)C(=O)N[C@@H](C)C(=O)N[C@H](COC(C)=O)C(=O)N(C)[C@@H](CC(C)C)C(=O)N(C)[C@@H](CC(C)C)C(=O)N(C)[C@@H](C(C)C)C(=O)N1C [Example 1, [(O-acetyl)-(D)Ser]^8 -Cyclosporine]",0.057,> 200,> 200,> 200
